# In article PMC5996148:
# The list shows a part of the results. For some assays here: The exact form of the protein is not confirmed.
# What was measured:
# Assay in all cases: protein microarray (ProtoArray v5.0), streptavidin-Alexa Fluor 647
# Details in all cases: 3'-biotin; 20 mM Tris (pH 7.5), 5 mM MgCl2, 100 mM KCl, 0.1% Tween-20, A/T-rich and random oligonucleotide blockers; temperature not stated; high values mean tight binding
# VAMP2 (human) = tested on: VAMP2 (human)
# VAMP5 (human) = tested on: VAMP5 (human)
# VANGL1 = target: T1, VANGL1 (UniProt Q8TAA9)
# T1 sequence: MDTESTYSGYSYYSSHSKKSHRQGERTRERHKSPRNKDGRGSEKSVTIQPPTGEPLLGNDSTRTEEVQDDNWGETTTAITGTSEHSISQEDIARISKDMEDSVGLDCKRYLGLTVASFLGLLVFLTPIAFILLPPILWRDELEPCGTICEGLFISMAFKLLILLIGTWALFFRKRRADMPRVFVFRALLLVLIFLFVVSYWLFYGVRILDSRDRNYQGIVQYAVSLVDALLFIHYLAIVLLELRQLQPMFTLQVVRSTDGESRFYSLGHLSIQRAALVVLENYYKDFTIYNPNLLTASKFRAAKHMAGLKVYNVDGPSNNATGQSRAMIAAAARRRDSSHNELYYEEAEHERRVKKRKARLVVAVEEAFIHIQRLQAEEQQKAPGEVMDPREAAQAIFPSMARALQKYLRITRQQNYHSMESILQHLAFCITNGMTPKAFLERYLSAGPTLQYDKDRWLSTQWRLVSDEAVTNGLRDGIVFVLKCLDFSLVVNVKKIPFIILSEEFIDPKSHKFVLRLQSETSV
# VENTX (human) = tested on: VENTX (human)
# VPS25 (human) = tested on: VPS25 (human)
# VPS28 (human) = tested on: VPS28 (human)
# VPS29 (human) = tested on: VPS29 (human)
# VPS33B (human) = tested on: VPS33B (human)
# VPS36 (human) = tested on: VPS36 (human)
# VPS37A (human) = tested on: VPS37A (human)
# [1] = tested on: Vesicle-trafficking protein SEC22b (human)
# [2] = tested on: Visinin-like protein 1 (human)
# [3] = tested on: Voltage-dependent L-type calcium channel subunit beta-1 (human)
# [4] = tested on: WAS protein family homolog 1 (human)
# WBP2 = target: T2, WBP2 (UniProt Q969T9)
# T2 sequence: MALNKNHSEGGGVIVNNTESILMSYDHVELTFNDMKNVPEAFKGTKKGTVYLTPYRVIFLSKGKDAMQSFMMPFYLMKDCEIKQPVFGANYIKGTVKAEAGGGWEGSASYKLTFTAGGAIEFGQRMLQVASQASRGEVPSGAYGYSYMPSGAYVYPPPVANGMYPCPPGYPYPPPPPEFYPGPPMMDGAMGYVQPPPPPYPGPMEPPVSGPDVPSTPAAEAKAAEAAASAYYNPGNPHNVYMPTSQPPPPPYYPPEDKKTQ
# [5] = tested on: WD repeat-containing protein 55 (human)
# WDFY1 (human) = tested on: WDFY1 (human)
# WDR1 (human) = tested on: WDR1 (human)
# WDR18 = target: T3, WDR18 (UniProt Q9BV38)
# T3 sequence: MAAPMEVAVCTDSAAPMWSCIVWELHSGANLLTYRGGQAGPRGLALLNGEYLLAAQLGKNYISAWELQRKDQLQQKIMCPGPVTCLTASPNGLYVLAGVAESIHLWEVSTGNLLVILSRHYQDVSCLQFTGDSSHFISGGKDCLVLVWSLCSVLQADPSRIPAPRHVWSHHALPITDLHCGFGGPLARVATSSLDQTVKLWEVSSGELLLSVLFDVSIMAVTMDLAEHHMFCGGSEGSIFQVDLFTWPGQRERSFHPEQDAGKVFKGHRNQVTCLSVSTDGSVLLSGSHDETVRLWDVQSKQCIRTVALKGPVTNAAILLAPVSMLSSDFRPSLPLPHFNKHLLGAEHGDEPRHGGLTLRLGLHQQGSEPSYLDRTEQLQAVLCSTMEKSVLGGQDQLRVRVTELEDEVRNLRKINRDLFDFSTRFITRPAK
# WDR24 (human) = tested on: WDR24 (human)
sequence,measurement,setting,value
GGGGACAGGGGTATGGGGAGGGG [G4-3 biotinylated (CtG)],binding signal,VAMP2 (human),-0.299 z-score
same,binding signal,VAMP5 (human),-0.32 z-score
same,binding signal,VANGL1,-0.312 z-score
same,binding signal,VENTX (human),-0.3 z-score
same,binding signal,VPS25 (human),-0.35 z-score
same,binding signal,VPS28 (human),-0.344 z-score
same,binding signal,VPS29 (human),-0.318 z-score
same,binding signal,VPS33B (human),-0.301 z-score
same,binding signal,VPS36 (human),-0.337 z-score
same,binding signal,VPS37A (human),-0.331 z-score
same,binding signal,[1],-0.331 z-score
same,binding signal,[2],-0.334 z-score
same,binding signal,[3],3.14 z-score
same,binding signal,[4],-0.349 z-score
same,binding signal,WBP2,-0.332 z-score
same,binding signal,[5],-0.322 z-score
same,binding signal,WDFY1 (human),-0.321 z-score
same,binding signal,WDR1 (human),-0.318 z-score
same,binding signal,WDR18,-0.328 z-score
same,binding signal,WDR24 (human),-0.314 z-score
